Reference: the supplement of paper PMC6411743
± gives the standard deviation of the averaged measurements. The list shows a part of the results.

The chains behind the UniProt entries cited, without tags or fusion partners. Where a name states a change or a piece, a line headed by the entry shows the natural chain unless it says otherwise.
UniProt Q9NVP2, whole entry: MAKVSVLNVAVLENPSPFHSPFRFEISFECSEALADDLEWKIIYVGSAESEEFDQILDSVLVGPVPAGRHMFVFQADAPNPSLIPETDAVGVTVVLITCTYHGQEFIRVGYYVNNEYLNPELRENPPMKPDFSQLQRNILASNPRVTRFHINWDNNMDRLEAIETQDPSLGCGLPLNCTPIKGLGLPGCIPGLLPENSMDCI
UniProt Q9P287, whole entry: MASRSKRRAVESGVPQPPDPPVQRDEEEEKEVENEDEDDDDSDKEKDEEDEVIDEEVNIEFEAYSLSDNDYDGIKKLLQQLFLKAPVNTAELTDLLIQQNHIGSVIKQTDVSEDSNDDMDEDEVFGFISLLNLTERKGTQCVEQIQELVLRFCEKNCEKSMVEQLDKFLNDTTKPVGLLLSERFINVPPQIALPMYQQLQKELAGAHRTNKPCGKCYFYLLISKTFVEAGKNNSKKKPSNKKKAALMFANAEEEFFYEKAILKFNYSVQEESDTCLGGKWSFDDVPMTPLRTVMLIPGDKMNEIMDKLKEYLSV
UniProt Q9NVX0: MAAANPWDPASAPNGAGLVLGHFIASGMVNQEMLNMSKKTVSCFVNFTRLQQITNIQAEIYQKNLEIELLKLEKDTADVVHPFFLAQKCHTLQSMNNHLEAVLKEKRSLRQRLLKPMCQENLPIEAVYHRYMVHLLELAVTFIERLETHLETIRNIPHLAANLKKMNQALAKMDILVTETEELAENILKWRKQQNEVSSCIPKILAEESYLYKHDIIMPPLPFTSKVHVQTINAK
UniProt Q9NZ45: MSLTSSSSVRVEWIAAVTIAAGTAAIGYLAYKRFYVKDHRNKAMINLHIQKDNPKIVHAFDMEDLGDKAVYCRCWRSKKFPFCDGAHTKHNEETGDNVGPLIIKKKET
UniProt Q9NY27: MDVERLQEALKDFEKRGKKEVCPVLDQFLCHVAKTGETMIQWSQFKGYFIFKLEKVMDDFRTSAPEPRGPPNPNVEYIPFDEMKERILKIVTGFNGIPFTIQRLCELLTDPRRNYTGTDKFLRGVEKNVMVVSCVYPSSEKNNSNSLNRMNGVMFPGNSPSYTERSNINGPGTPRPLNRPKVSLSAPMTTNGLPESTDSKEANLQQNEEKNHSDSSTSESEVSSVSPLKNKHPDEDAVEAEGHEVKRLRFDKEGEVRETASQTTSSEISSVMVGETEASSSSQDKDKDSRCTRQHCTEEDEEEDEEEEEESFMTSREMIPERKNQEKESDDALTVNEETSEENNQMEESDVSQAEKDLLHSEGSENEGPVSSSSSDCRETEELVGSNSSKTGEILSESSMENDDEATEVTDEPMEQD
UniProt Q9NUP9: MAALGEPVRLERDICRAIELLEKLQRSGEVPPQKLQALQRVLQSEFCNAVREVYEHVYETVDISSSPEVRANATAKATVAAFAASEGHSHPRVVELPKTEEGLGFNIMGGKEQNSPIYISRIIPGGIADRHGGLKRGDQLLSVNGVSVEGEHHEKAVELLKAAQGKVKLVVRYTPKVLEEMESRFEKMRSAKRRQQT
UniProt Q9UH92: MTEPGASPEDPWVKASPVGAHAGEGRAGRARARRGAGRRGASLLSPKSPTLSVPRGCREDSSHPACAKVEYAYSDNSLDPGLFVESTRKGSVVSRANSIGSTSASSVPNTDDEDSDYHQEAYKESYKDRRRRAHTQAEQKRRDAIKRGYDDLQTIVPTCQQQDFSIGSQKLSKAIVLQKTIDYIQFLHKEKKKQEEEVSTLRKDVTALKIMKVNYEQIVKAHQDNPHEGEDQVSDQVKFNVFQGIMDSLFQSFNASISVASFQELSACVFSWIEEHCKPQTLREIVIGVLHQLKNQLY
UniProt Q9UJK0: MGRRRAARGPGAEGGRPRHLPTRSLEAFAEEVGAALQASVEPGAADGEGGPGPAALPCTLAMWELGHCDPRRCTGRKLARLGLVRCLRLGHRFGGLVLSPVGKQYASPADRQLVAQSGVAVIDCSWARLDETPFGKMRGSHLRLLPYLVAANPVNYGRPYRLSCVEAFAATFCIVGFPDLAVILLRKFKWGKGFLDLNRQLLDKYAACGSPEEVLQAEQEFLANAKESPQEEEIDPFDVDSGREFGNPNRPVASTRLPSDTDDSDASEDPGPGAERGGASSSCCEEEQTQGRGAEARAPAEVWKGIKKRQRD
UniProt Q9UEU0: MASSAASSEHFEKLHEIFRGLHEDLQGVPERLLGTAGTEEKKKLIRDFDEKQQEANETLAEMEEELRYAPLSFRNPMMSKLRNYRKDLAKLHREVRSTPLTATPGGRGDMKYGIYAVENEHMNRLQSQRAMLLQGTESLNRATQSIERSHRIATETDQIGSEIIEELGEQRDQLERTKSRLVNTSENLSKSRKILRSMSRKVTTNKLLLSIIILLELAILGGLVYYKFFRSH
UniProt Q9P2K8: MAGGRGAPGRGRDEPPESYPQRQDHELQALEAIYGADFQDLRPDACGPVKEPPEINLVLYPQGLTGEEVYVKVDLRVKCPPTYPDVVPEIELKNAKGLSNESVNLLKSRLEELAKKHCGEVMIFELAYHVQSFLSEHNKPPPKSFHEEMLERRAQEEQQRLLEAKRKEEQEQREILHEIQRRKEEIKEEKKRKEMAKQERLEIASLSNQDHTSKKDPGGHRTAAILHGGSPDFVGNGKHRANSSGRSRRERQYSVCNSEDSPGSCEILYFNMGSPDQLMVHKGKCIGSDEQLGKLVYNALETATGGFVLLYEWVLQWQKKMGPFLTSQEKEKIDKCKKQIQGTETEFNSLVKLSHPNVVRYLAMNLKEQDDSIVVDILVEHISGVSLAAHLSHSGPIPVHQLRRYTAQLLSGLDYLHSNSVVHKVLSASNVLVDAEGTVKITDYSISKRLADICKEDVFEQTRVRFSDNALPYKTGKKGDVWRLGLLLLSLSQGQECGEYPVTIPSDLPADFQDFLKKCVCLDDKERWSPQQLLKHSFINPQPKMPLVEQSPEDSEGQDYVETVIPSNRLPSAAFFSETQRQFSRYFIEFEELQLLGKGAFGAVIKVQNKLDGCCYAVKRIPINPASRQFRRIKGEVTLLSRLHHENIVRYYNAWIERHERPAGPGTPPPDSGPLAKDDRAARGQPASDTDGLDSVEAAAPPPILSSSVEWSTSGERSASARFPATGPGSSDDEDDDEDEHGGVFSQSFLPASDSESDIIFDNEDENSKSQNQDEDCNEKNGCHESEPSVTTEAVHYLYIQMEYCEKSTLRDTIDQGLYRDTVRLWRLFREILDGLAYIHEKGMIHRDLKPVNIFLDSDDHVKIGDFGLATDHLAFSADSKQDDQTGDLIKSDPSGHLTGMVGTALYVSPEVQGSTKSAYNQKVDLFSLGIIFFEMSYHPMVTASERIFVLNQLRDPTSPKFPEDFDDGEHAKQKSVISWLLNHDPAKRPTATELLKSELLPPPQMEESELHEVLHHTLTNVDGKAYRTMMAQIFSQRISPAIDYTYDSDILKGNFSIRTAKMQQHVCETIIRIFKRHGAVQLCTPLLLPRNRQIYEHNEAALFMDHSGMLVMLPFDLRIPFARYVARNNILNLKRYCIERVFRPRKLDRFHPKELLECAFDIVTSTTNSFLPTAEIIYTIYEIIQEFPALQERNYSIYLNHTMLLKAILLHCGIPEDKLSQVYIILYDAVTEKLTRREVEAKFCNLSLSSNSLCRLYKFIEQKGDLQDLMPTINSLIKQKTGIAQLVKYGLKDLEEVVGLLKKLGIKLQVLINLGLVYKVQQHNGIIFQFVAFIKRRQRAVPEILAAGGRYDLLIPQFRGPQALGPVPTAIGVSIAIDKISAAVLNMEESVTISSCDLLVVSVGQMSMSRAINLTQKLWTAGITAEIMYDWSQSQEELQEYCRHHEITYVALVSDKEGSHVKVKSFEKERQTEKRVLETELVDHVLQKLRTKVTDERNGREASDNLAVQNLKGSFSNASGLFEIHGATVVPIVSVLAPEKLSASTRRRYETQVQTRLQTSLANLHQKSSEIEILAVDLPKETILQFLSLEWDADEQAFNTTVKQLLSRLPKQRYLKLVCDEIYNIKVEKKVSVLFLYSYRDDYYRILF
UniProt Q9P2R3: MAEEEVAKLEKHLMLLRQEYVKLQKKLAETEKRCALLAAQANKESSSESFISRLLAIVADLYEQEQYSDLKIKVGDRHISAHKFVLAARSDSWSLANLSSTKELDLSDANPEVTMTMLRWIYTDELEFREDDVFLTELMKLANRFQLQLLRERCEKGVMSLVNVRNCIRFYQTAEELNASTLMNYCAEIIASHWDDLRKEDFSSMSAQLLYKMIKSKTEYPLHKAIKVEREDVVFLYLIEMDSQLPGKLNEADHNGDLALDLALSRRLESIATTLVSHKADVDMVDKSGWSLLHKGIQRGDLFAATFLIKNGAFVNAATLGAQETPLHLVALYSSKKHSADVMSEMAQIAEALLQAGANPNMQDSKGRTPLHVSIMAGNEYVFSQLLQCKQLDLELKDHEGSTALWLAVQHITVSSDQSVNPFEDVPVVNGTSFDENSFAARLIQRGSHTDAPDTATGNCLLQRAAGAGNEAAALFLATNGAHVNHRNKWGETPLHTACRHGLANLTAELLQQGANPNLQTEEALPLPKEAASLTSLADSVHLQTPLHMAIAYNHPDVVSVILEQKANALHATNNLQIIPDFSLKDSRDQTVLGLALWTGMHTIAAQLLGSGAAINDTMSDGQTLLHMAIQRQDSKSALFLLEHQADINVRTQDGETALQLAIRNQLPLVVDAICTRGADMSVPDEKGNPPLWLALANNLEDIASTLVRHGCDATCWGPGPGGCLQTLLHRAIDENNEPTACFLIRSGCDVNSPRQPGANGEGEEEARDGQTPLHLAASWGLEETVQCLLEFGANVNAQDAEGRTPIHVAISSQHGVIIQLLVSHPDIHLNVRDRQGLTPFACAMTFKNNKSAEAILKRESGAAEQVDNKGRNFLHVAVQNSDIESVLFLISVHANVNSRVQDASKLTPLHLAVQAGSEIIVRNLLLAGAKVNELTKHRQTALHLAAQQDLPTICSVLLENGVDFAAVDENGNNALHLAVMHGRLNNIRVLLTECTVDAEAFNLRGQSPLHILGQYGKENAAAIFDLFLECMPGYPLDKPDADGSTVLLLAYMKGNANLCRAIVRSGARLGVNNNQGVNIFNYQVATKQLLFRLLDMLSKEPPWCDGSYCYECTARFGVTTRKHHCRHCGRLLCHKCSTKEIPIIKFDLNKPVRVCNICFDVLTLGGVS
UniProt Q9NZ63: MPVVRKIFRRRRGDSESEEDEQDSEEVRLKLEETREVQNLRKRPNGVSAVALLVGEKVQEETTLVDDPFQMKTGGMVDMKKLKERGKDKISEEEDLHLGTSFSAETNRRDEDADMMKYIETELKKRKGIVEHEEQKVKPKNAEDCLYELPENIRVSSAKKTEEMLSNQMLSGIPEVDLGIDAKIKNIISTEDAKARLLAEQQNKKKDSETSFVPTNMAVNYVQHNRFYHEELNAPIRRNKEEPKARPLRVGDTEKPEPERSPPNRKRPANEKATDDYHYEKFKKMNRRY
UniProt Q9NY12: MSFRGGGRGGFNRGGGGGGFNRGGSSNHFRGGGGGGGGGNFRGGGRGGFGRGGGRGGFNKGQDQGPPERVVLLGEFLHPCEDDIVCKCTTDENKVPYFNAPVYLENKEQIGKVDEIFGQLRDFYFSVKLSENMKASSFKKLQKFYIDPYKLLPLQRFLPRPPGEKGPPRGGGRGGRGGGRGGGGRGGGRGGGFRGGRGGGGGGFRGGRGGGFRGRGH
UniProt Q9UBV8: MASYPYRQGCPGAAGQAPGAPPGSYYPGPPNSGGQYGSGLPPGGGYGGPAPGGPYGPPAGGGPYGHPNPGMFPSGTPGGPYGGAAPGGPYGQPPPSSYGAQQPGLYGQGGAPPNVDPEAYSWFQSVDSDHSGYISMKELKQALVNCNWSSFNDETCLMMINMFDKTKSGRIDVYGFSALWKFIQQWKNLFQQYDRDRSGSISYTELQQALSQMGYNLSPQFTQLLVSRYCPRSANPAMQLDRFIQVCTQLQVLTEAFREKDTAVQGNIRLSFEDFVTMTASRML

Compound: Nc1nc2c(ncn2[C@@H]2O[C@H](COP(=O)(O)OP(=O)(O)OP(=O)(O)O)[C@@H](O)[C@H]2O)c(=O)[nH]1 [guanosine triphosphate]
Test: NP40-soluble protein abundance relative to vehicle (solubility fold change) (ratio); higher = more soluble protein in presence of GTP
Outline: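 Crude Jurkat lysate, prepared by Dounce homogenisation, was exposed to eight concentrations from 0.1 to 10 mM for 10 min at room temperature and then 3 min at 37 °C. Solubilisation used 0.8% NP40 with benzonase for 60 min at 4 °C, followed by ultracentrifugation and TMT labelling of the supernatant for LC-MS/MS. After vsn normalisation of intensities, each value is the fold change against the detergent-processed vehicle within each replicate, across three independent experiments.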

Row | Target | NP40-soluble protein abundance (concentration: 0.1mM) | NP40-soluble protein abundance (concentration: 0.5mM) | NP40-soluble protein abundance (concentration: 1mM) | NP40-soluble protein abundance (concentration: 2mM) | NP40-soluble protein abundance (concentration: 4mM) | NP40-soluble protein abundance (concentration: 6mM) | NP40-soluble protein abundance (concentration: 8mM) | NP40-soluble protein abundance (concentration: 10mM)
1 | ASF1B (UniProt Q9NVP2) | 1.01 ± 0.082 | 0.932 ± 0.11 | 0.859 ± 0.02 | 0.86 ± 0.071 | 0.886 ± 0.014 | 0.788 ± 0.0082 | 0.782 ± 0.11 | 0.811 ± 0.11
2 | UniProt Q9P287 and related entries | 1.03 ± 0.026 | 0.973 ± 0.032 | 0.971 ± 0.066 | 0.953 ± 0.059 | 0.99 ± 0.083 | 0.913 ± 0.069 | 0.943 ± 0.058 | 0.946 ± 0.075
3 | UniProt Q9NVX0 and related entries | 0.873 ± 0.21 | 0.823 ± 0.036 | 1.02 ± 0.079 | 1.05 ± 0.083 | 1.01 ± 0.12 | 0.996 ± 0.14 | 0.963 ± 0.022 | 1.02 ± 0.17
4 | CISD1 (UniProt Q9NZ45) | 0.841 ± 0.055 | 0.817 ± 0.043 | 0.987 ± 0.049 | 0.959 ± 0.033 | 0.953 ± 0.085 | 0.934 ± 0.039 | 0.919 ± 0.17 | 0.918 ± 0.015
5 | PPP4R2 (UniProt Q9NY27) | 0.942 ± 0.048 | 0.949 ± 0.059 | 0.966 ± 0.051 | 0.946 ± 0.052 | 0.955 ± 0.073 | 0.934 ± 0.045 | 0.964 ± 0.032 | 0.96 ± 0.046
6 | UniProt Q9NUP9 | 0.888 ± 0.1 | 0.848 ± 0.078 | 1.01 ± 0.11 | 1.01 ± 0.017 | 1.02 ± 0.077 | 0.967 ± 0.062 | 0.929 ± 0.1 | 1.06 ± 0.09
7 | UniProt Q9UH92 and related entries | 0.987 ± 0.02 | 0.951 ± 0.079 | 0.914 ± 0.062 | 1.07 ± 0.17 | 1.01 ± 0.096 | 0.944 ± 0.14 | 0.909 ± 0.069 | 1.01 ± 0.062
8 | UniProt Q9UJK0 | 1.03 ± 0.061 | 1.03 ± 0.025 | 0.968 ± 0.025 | 0.892 ± 0.077 | 0.9682 ± 0.0083 | 0.969 ± 0.021 | 0.959 ± 0.024 | 0.908 ± 0.0051
9 | VTI1B (UniProt Q9UEU0) | 0.993 ± 0.037 | 0.969 ± 0.064 | 1.02 ± 0.014 | 1.1 ± 0.067 | 1.14 ± 0.027 | 1.1 ± 0.08 | 1.07 ± 0.1 | 1.121 ± 0.01
10 | UniProt Q9P2K8 and related entries | 1.05 ± 0.034 | 1.08 ± 0.05 | 0.99 ± 0.036 | 1.04 ± 0.057 | 1.03 ± 0.069 | 1 ± 0.05 | 0.979 ± 0.028 | 0.969 ± 0.049
11 | UniProt Q9P2R3 and related entries | 1.08 ± 0.019 | 1.03 ± 0.023 | 0.958 ± 0.062 | 0.974 ± 0.062 | 0.97 ± 0.059 | 0.954 ± 0.071 | 0.93 ± 0.046 | 0.904 ± 0.084
12 | C9orf78 (UniProt Q9NZ63) | 0.863 ± 0.051 | 0.823 ± 0.039 | 0.961 ± 0.077 | 0.924 ± 0.083 | 0.905 ± 0.083 | 0.937 ± 0.11 | 0.932 ± 0.097 | 0.975 ± 0.075
13 | UniProt Q9NY12 and related entries | 1.04 ± 0.097 | 1.06 ± 0.12 | 1.17 ± 0.2 | 1.34 ± 0.15 | 1.51 ± 0.24 | 1.72 ± 0.19 | 1.9 ± 0.27 | 2.35 ± 0.49
14 | PEF1 (UniProt Q9UBV8) | 0.946 ± 0.077 | 0.888 ± 0.036 | 0.995 ± 0.1 | 0.994 ± 0.043 | 1.03 ± 0.076 | 0.993 ± 0.063 | 0.891 ± 0.084 | 1.02 ± 0.14
15 | UniProt Q9NV70 and related entries | 1.05 ± 0.058 | 1.08 ± 0.025 | 1 ± 0.043 | 1.01 ± 0.021 | 1.02 ± 0.054 | 1.01 ± 0.053 | 1.01 ± 0.039 | 0.994 ± 0.025

Whole records as entered above. Order of values: NP40-soluble protein abundance (concentration: 0.1mM) | NP40-soluble protein abundance (concentration: 0.5mM) | NP40-soluble protein abundance (concentration: 1mM) | NP40-soluble protein abundance (concentration: 2mM) | NP40-soluble protein abundance (concentration: 4mM) | NP40-soluble protein abundance (concentration: 6mM) | NP40-soluble protein abundance (concentration: 8mM) | NP40-soluble protein abundance (concentration: 10mM)
UniProt Q9UJK0 is entered as 1.03 ± 0.061 | 1.03 ± 0.025 | 0.968 ± 0.025 | 0.892 ± 0.077 | 0.9682 ± 0.0083 | 0.969 ± 0.021 | 0.959 ± 0.024 | 0.908 ± 0.0051
UniProt Q9NUP9 is entered as 0.888 ± 0.1 | 0.848 ± 0.078 | 1.01 ± 0.11 | 1.01 ± 0.017 | 1.02 ± 0.077 | 0.967 ± 0.062 | 0.929 ± 0.1 | 1.06 ± 0.09
